Measurements published in patent US12723053B2, “KRas inhibitors” (ELI LILLY AND COMPANY, priority 2023, dated 2026).
Some of these results come from one statement about several compounds together.

Experiments:
[1] = target: HRAS (Homo sapiens, UniProt P01112); assay: Cellular Phospho-ERK AlphaLISA assay, MEF-HRAS cells; type: cell-based, mouse; details: RAS-less MEFs expressing HRAS only; read-out: relative IC50, phospho-ERK, MEF-HRAS
[2] = target: NRAS (Homo sapiens, UniProt P01111); assay: Cellular Phospho-ERK AlphaLISA assay, MEF-NRAS cells; type: cell-based, mouse; details: RAS-less MEFs expressing NRAS only; read-out: relative IC50, phospho-ERK, MEF-NRAS

SMILES	IC50 [1]	IC50 [2]
CC(C)N1CCN([C@H]2CCN(c3ncc4c5c(c(-c6ncc(F)c7sc(N)c(C#N)c67)c(F)c4n3)COC5)C2)CC1 [Example 40D, 2-Amino-7-fluoro-4-(5-fluoro-3-((S)-3-(4-isopropylpiperazin-1-yl)pyrrolidin-1-yl)-7,9-dihydrofuro[3,4-f]quinazolin-6-yl)thieno[3,2-c]pyridine-3-carbonitrile]	> 2000 nM	> 2000 nM
CN1CCC12CN(c1ncc3c4c(c(-c5ncc(F)c6sc(N)c(C#N)c56)c(F)c3n1)COC4)C2 [Example 41A, 2-Amino-7-fluoro-4-(5-fluoro-3-(1-methyl-1,6-diazaspiro[3.3]heptan-6-yl)-7,9-dihydrofuro[3,4-f]quinazolin-6-yl)thieno[3,2-c]pyridine-3-carbonitrile]	> 2000 nM	> 2000 nM
N#Cc1c(N)sc2c(F)cnc(-c3c4c(c5cnc(N6CC[C@@H](N7CCN(CCO)CC7)C6)nc5c3F)COC4)c12 [Example 43D, 2-Amino-7-fluoro-4-(5-fluoro-3-((R)-3-(4-(2-hydroxyethyl)piperazin-1-yl)pyrrolidin-1-yl)-7,9-dihydrofuro[3,4-f]quinazolin-6-yl)thieno[3,2-c]pyridine-3-carbonitrile]	> 2000 nM	> 2000 nM
N#Cc1c(N)sc2c(F)cnc(-c3c4c(c5cnc(N6CC[C@@H](N7CCN(C8COC8)CC7)C6)nc5c3F)COC4)c12 [Example 44D, 2-Amino-7-fluoro-4-(5-fluoro-3-((R)-3-(4-(oxetan-3-yl)piperazin-1-yl)pyrrolidin-1-yl)-7,9-dihydrofuro[3,4-f]quinazolin-6-yl)thieno[3,2-c]pyridine-3-carbonitrile]	> 2000 nM	> 2000 nM
N#Cc1c(N)sc2c(F)cnc(-c3c4c(c5cnc(N6CC[C@@H](N7CCNCC7)C6)nc5c3F)COC4)c12 [Example 46D, 2-Amino-7-fluoro-4-(5-fluoro-3-((R)-3-(piperazin-1-yl)pyrrolidin-1-yl)-7,9-dihydrofuro[3,4-f]quinazolin-6-yl)thieno[3,2-c]pyridine-3-carbonitrile]	> 2000 nM	> 2000 nM
N#Cc1c(N)sc2c(F)cnc(-c3c4c(c5cnc(N6CC[C@H](N7CCNCC7)C6)nc5c3F)COC4)c12 [Example 47D, 2-Amino-7-fluoro-4-(5-fluoro-3-((S)-3-(piperazin-1-yl)pyrrolidin-1-yl)-7,9-dihydrofuro[3,4-f]quinazolin-6-yl)thieno[3,2-c]pyridine-3-carbonitrile]	> 2000 nM	> 2000 nM
CN1C[C@H]2C[C@@H]1CN2c1ncc2c3c(c(-c4ncc(F)c5sc(N)c(C#N)c45)c(F)c2n1)COC3 [Example 53A, 2-Amino-7-fluoro-4-(5-fluoro-3-((1R,4R)-5-methyl-2,5-diazabicyclo[2.2.1]heptan-2-yl)-7,9-dihydrofuro[3,4-f]quinazolin-6-yl)thieno[3,2-c]pyridine-3-carbonitrile]	> 2000 nM	> 2000 nM
C[C@@H]1CN([C@@H]2CCN(c3ncc4c5c(c(-c6ncc(F)c7sc(N)c(C#N)c67)c(F)c4n3)COC5)C2)CCN1C [Example 56D, 2-Amino-4-(3-((R)-3-((R)-3,4-dimethylpiperazin-1-yl)pyrrolidin-1-yl)-5-fluoro-7,9-dihydrofuro[3,4-f]quinazolin-6-yl)-7-fluorothieno[3,2-c]pyridine-3-carbonitrile]	> 2000 nM	> 2000 nM
C[C@@H]1CNCCN1c1ncc2c3c(c(-c4ncc(F)c5sc(N)c(C#N)c45)c(F)c2n1)COC3 [Example 57B, 2-Amino-7-fluoro-4-(5-fluoro-3-((R)-2-methylpiperazin-1-yl)-7,9-dihydrofuro[3,4-f]quinazolin-6-yl)thieno[3,2-c]pyridine-3-carbonitrile]	> 2000 nM	> 2000 nM
CN[C@H]1CCN(c2ncc3c4c(c(-c5ncc(F)c6sc(N)c(C#N)c56)c(F)c3n2)COC4)C1 [Example 59A, 2-Amino-7-fluoro-4-(5-fluoro-3-((S)-3-(methylamino)pyrrolidin-1-yl)-7,9-dihydrofuro[3,4-f]quinazolin-6-yl)thieno[3,2-c]pyridine-3-carbonitrile]	> 2000 nM	> 2000 nM
N#Cc1c(N)sc2c(F)cnc(-c3c4c(c5cnc(N6CC[C@@]7(CCCN7)C6)nc5c3F)COC4)c12 [Example 60B, 2-Amino-7-fluoro-4-(5-fluoro-3-((S)-1,7-diazaspiro[4.4]nonan-7-yl)-7,9-dihydrofuro[3,4-f]quinazolin-6-yl)thieno[3,2-c]pyridine-3-carbonitrile]	> 2000 nM	> 2000 nM
Cc1cnc(-c2c3c(c4cnc(N5CC[C@H](N(C)C)C5)nc4c2F)COC3)c2c(C#N)c(N)sc12 [Example 63B, 2-Amino-4-(3-((S)-3-(dimethylamino)pyrrolidin-1-yl)-5-fluoro-7,9-dihydrofuro[3,4-f]quinazolin-6-yl)-7-methylthieno[3,2-c]pyridine-3-carbonitrile]	> 2000 nM	> 2000 nM
CN(CCO)[C@H]1CCN(c2ncc3c4c(c(-c5ncc(F)c6sc(N)c(C#N)c56)c(F)c3n2)COC4)C1 [Example 65B, 2-Amino-7-fluoro-4-(5-fluoro-3-((S)-3-((2-hydroxyethyl)(methyl)amino)pyrrolidin-1-yl)-7,9-dihydrofuro[3,4-f]quinazolin-6-yl)thieno[3,2-c]pyridine-3-carbonitrile]	> 2000 nM	> 2000 nM
N#Cc1c(N)sc2c(F)cnc(-c3c4c(c5cnc(N6CCC7(CCCN7)C6)nc5c3F)COC4)c12 (stereo not drawn) [Example 68B, 2-Amino-7-fluoro-4-(5-fluoro-3-(1,7-diazaspiro[4.4]nonan-7-yl)-7,9-dihydrofuro[3,4-f]quinazolin-6-yl)thieno[3,2-c]pyridine-3-carbonitrile]	> 2000 nM	> 2000 nM
CN(C)[C@@H]1[C@H]2C[C@@H]1N(c1ncc3c4c(c(-c5ncc(F)c6sc(N)c(C#N)c56)c(F)c3n1)COC4)C2 [Example 69A, 2-Amino-4-(3-((1S,4S,5R)-5-(dimethylamino)-2-azabicyclo[2.1.1]hexan-2-yl)-5-fluoro-7,9-dihydrofuro[3,4-f]quinazolin-6-yl)-7-fluorothieno[3,2-c]pyridine-3-carbonitrile]	> 2000 nM	> 2000 nM
N#Cc1c(N)sc2c(F)cnc(-c3c4c(c5cnc(N6CC(n7ccnc7)C6)nc5c3F)COC4)c12 [Example 70B, 4-(3-(3-(1H-Imidazol-1-yl)azetidin-1-yl)-5-fluoro-7,9-dihydrofuro[3,4-f]quinazolin-6-yl)-2-amino-7-fluorothieno[3,2-c]pyridine-3-carbonitrile]	> 2000 nM	> 2000 nM
C[C@@H]1[C@H](N2CCN(C)CC2)CCN1c1ncc2c3c(c(-c4ncc(F)c5sc(N)c(C#N)c45)c(F)c2n1)COC3 [Example 80D, 2-Amino-7-fluoro-4-(5-fluoro-3-((2R,3R)-2-methyl-3-(4-methylpiperazin-1-yl)pyrrolidin-1-yl)-7,9-dihydrofuro[3,4-f]quinazolin-6-yl)thieno[3,2-c]pyridine-3-carbonitrile]	> 2000 nM	> 2000 nM
CN1CCCCC12CN(c1ncc3c4c(c(-c5ncc(F)c6sc(N)c(C#N)c56)c(F)c3n1)COC4)C2 [Example 86B, 2-Amino-7-fluoro-4-(5-fluoro-3-(5-methyl-2,5-diazaspiro[3.5]nonan-2-yl)-7,9-dihydrofuro[3,4-f]quinazolin-6-yl)thieno[3,2-c]pyridine-3-carbonitrile]	> 2000 nM	> 2000 nM
CN(C)[C@H]1C[C@@H](CO)N(c2ncc3c4c(c(-c5ncc(F)c6sc(N)c(C#N)c56)c(F)c3n2)COC4)C1 [Example 87B, 2-Amino-4-(3-((2S,4S)-4-(dimethylamino)-2-(hydroxymethyl)pyrrolidin-1-yl)-5-fluoro-7,9-dihydrofuro[3,4-f]quinazolin-6-yl)-7-fluorothieno[3,2-c]pyridine-3-carbonitrile]	> 2000 nM	> 2000 nM
C[C@H]1[C@@H](N2CCN(C)C[C@H]2CO)CCN1c1ncc2c3c(c(-c4ncc(F)c5sc(N)c(C#N)c45)c(F)c2n1)COC3 [Example 91D, 2-Amino-7-fluoro-4-(5-fluoro-3-((2S,3S)-3-((S)-2-(hydroxymethyl)-4-methylpiperazin-1-yl)-2-methylpyrrolidin-1-yl)-7,9-dihydrofuro[3,4-f]quinazolin-6-yl)thieno[3,2-c]pyridine-3-carbonitrile]	> 2000 nM	> 2000 nM
CN1CC2CC(C1)N2c1ncc2c3c(c(-c4ncc(F)c5sc(N)c(C#N)c45)c(F)c2n1)COC3 [Example 93B, 2-Amino-7-fluoro-4-(5-fluoro-3-(3-methyl-3,6-diazabicyclo[3.1.1]heptan-6-yl)-7,9-dihydrofuro[3,4-f]quinazolin-6-yl)thieno[3,2-c]pyridine-3-carbonitrile]	> 2000 nM	> 2000 nM
C[C@H]1[C@@H](N2CC3CCC(C2)N3C)CCN1c1ncc2c3c(c(-c4ncc(F)c5sc(N)c(C#N)c45)c(F)c2n1)COC3 [Example 93D, 2-Amino-7-fluoro-4-(5-fluoro-3-((2S,3S)-2-methyl-3-(8-methyl-3,8-diazabicyclo[3.2.1]octan-3-yl)pyrrolidin-1-yl)-7,9-dihydrofuro[3,4-f]quinazolin-6-yl)thieno[3,2-c]pyridine-3-carbonitrile]	> 2000 nM	> 2000 nM
CN(C)C[C@@H]1CN(c2ncc3c4c(c(-c5ncc(F)c6sc(N)c(C#N)c56)c(F)c3n2)COC4)CCO1 [Example 98B, 2-Amino-4-(3-((R)-2-((dimethylamino)methyl)morpholino)-5-fluoro-7,9-dihydrofuro[3,4-f]quinazolin-6-yl)-7-fluorothieno[3,2-c]pyridine-3-carbonitrile]	> 2000 nM	> 2000 nM
CN(C)C1CCC12CN(c1ncc3c4c(c(-c5ncc(F)c6sc(N)c(C#N)c56)c(F)c3n1)COC4)C2 (stereo not drawn) [Example 99B, 2-Amino-4-(3-(5-(dimethylamino)-2-azaspiro[3.3]heptan-2-yl)-5-fluoro-7,9-dihydrofuro[3,4-f]quinazolin-6-yl)-7-fluorothieno[3,2-c]pyridine-3-carbonitrile]	> 2000 nM	> 2000 nM
